From patent US20130323813, “PEPTIDES FOR THE SPECIFIC BINDING OF RNA TARGETS” (THE UNIVERSITY OF WESTERN AUSTRALIA, published 2013) come the findings set out here.

Numbering of substitutions follows the chain as printed. For some of these results: Where cells or extracts were used, other partners may take part. For some of these results: Negatives hold for the conditions tested. Tags and fusion partners may be left off the protein sequences shown. For some of these results: Weaker means in comparison with the reference protein, sequence or condition of that experiment. For some of these results: Construct, isoform or probe ends are uncertain for at least one entry.

Assay in all cases: one hybrid
In data set [1] the target is T1, PUM1 PUF GR repeat 1 (Homo sapiens) (UniProt Q14671).
T1 sequence: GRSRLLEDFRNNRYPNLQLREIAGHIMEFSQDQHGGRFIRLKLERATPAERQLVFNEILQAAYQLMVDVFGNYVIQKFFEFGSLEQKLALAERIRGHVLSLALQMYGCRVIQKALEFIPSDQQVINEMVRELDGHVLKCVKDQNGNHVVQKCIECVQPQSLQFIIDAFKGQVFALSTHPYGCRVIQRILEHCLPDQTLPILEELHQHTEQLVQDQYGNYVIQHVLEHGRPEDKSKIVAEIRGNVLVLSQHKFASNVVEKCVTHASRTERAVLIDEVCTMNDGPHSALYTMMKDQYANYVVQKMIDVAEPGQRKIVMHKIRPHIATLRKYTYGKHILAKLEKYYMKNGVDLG
The note with it: yeast three-hybrid; protein in cells; protein details: Gal4 activation domain fusion.

Data set [2] concerns the target T2, PUM1 PUF GR repeat 2 (Homo sapiens) (UniProt Q14671).
T2 sequence: T1 sequence with G36S, R40Q, N72G, Q76R
The note with it: yeast three-hybrid; protein in cells; protein details: Gal4 activation domain fusion.

Data set [3] addresses T3, PUM1 PUF GR repeat 4 (Homo sapiens) (UniProt Q14671).
T3 sequence: T1 sequence with G36S, R40Q, N146G, Q150R
The note with it: yeast three-hybrid; protein in cells; protein details: Gal4 activation domain fusion.

In data set [4] the target is T4, PUM1 PUF GR repeat 5 (Homo sapiens) (UniProt Q14671).
T4 sequence: T1 sequence with G36S, R40Q, C182G, Q186R
The note with it: yeast three-hybrid; protein in cells; protein details: Gal4 activation domain fusion.

Data set [5] concerns the target T5, PUM1 PUF GR repeat 8 (Homo sapiens) (UniProt Q14671).
T5 sequence: T1 sequence with G36S, R40Q, N297G, Q301R
The note with it: yeast three-hybrid; protein in cells; protein details: Gal4 activation domain fusion.

Data set [6] has as its target T6, PUM1 PUF TR (repeat 6 Thr12/Arg16) (Homo sapiens) (UniProt Q14671).
T6 sequence: T1 sequence with G36S, R40Q, N218T, Q222R
The note with it: yeast three-hybrid; protein in cells; protein details: Gal4 activation domain fusion.

The target in data set [7] is T7, PUM1 PUF domain wild type (NQ) (Homo sapiens) (UniProt Q14671).
T7 sequence: T1 sequence with G36S, R40Q
The note with it: yeast three-hybrid; 8-repeat PUF with cognate RNA; purified recombinant protein.

In the case of “CCGGCUAGCAAUUGUAUAUAUUAAUUUAAUAAAGCAUG [NRE]”, the binding result in data set [1] is recorded as “binds more weakly”; in data set [2], “binds more weakly”; in data set [3], “binds more weakly”; in data set [4], “binds more weakly”; in data set [5] it was “binds more weakly”; in data set [6], “no binding”. In data set [7], the binding result is given as “binds”.
